Data reported in patent publication US9174992B2, “Heterobicyclic compounds” (Amgen Inc., priority 2012, dated 2015).
Structures were worked out from names or drawings and are uncertain.

Amino acid sequences for entries named in this document (tags omitted).
UniProt Q9Y233, whole entry: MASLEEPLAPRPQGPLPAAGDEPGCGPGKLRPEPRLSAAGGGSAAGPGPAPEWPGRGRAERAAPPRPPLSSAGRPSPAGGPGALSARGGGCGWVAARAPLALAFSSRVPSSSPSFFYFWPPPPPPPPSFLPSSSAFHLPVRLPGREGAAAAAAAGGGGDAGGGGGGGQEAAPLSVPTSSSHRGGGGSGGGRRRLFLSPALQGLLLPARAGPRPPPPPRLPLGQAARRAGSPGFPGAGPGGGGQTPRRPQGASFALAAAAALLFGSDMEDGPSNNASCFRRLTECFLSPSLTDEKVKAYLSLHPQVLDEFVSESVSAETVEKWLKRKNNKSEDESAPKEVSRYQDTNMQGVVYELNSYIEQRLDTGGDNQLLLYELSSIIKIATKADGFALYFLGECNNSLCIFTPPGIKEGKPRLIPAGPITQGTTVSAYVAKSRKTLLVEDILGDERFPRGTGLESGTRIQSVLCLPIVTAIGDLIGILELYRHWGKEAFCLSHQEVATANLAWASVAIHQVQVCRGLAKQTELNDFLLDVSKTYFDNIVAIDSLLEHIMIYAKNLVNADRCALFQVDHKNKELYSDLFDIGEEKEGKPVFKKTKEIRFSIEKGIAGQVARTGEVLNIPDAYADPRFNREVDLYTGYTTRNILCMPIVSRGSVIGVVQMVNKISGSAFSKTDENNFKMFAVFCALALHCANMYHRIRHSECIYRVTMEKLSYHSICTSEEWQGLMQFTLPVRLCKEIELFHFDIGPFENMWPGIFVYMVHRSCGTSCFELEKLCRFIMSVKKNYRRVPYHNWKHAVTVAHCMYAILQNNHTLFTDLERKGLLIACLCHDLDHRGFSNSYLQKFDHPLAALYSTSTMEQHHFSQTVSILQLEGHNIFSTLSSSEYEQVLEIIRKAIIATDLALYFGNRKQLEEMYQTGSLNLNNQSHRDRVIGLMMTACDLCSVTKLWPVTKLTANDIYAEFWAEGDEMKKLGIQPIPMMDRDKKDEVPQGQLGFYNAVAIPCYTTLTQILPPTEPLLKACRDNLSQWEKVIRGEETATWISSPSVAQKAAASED

Biological target: PDE10A (UniProt Q9Y233)
Experiment: PDE10 enzyme inhibition, IMAP TR-FRET assay (Example A, MPDE10A7 Enzyme Activity and Inhibition)
Format: biochemical
Settings: approximate IC50 value, Table 10

`COc1nc2cccnc2n1C1CC(C(O)c2nc3ccccc3[nH]2)C1` (stereo not shown) was tested, and the IC50 was 228 pM.
